Reference: PubChem BioAssay AID1508597 (Cure First, 2020)

Screen: 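Knock-downs altering ovarian cancer cell survival with or without PARP inhibitor rucaparib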 (primary screen)
Cells: human ovarian carcinoma lines grown from tumours: OCI-P5x (papillary serous) and OCI-C5x (clear cell)
Reagents: siRNA pool against human genes, 1.25 pmol siRNA per well
Time to read-out: 72 h or 96 h, depending on the cell culture
Conditions: rucaparib 20 µM (about IC30) or vehicle, present until read-out
Measurement: 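ATP luminescence measured at 72 or 96 h according to the culture, then normalised and expressed as percent viability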
Reading the numbers: viability, normalised: higher = more viable cells remaining
Hit rule: 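Active when normalised viability falls below 80 percent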
Calls: active = viability under 80%; inactive = viability 80% or more
The deposit covers about 2,100 reagents; shown is a part drawn at random. 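Calls flag viability under 80% in either arm, not effects specific to rucaparib; the reference for percent is not stated.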 Reagent sequences are not shown. Not stated in the record: the 100% reference.

MARVELD3, rucaparib or vehicle Rucaparib, cell line OCI-C5x (clear cell), technical replicate 1: viability, normalised (%) = 46.9; outcome = active
MARVELD3, rucaparib or vehicle Rucaparib, cell line OCI-C5x (clear cell), technical replicate 2: viability, normalised (%) = 55.1; outcome = active
MARVELD3, rucaparib or vehicle Rucaparib, cell line OCI-C5x (clear cell), technical replicate 3: viability, normalised (%) = 57.8; outcome = active
MARVELD3, rucaparib or vehicle Rucaparib, cell line OCI-P5x (serous), technical replicate 1: viability, normalised (%) = 101; outcome = inactive
MARVELD3, rucaparib or vehicle Rucaparib, cell line OCI-P5x (serous), technical replicate 2: viability, normalised (%) = 74.8; outcome = active
MARVELD3, rucaparib or vehicle Rucaparib, cell line OCI-P5x (serous), technical replicate 3: viability, normalised (%) = 77.1; outcome = active
MARVELD3, rucaparib or vehicle Vehicle, cell line OCI-C5x (clear cell), technical replicate 1: viability, normalised (%) = 69.7; outcome = active
MARVELD3, rucaparib or vehicle Vehicle, cell line OCI-C5x (clear cell), technical replicate 2: viability, normalised (%) = 53.2; outcome = active
MARVELD3, rucaparib or vehicle Vehicle, cell line OCI-C5x (clear cell), technical replicate 3: viability, normalised (%) = 57.6; outcome = active
MARVELD3, rucaparib or vehicle Vehicle, cell line OCI-P5x (serous), technical replicate 1: viability, normalised (%) = 47.4; outcome = active
MARVELD3, rucaparib or vehicle Vehicle, cell line OCI-P5x (serous), technical replicate 2: viability, normalised (%) = 79.4; outcome = active
MARVELD3, rucaparib or vehicle Vehicle, cell line OCI-P5x (serous), technical replicate 3: viability, normalised (%) = 74.6; outcome = active
ZRANB3, rucaparib or vehicle Rucaparib, cell line OCI-C5x (clear cell), technical replicate 1: viability, normalised (%) = 75.8; outcome = active
ZRANB3, rucaparib or vehicle Rucaparib, cell line OCI-C5x (clear cell), technical replicate 2: viability, normalised (%) = 59.4; outcome = active
ZRANB3, rucaparib or vehicle Rucaparib, cell line OCI-C5x (clear cell), technical replicate 3: viability, normalised (%) = 52.5; outcome = active
ZRANB3, rucaparib or vehicle Rucaparib, cell line OCI-P5x (serous), technical replicate 1: viability, normalised (%) = 91.9; outcome = inactive
ZRANB3, rucaparib or vehicle Rucaparib, cell line OCI-P5x (serous), technical replicate 2: viability, normalised (%) = 60.5; outcome = active
ZRANB3, rucaparib or vehicle Rucaparib, cell line OCI-P5x (serous), technical replicate 3: viability, normalised (%) = 81.2; outcome = inactive
ZRANB3, rucaparib or vehicle Vehicle, cell line OCI-C5x (clear cell), technical replicate 1: viability, normalised (%) = 64.2; outcome = active
ZRANB3, rucaparib or vehicle Vehicle, cell line OCI-C5x (clear cell), technical replicate 2: viability, normalised (%) = 68.8; outcome = active
ZRANB3, rucaparib or vehicle Vehicle, cell line OCI-C5x (clear cell), technical replicate 3: viability, normalised (%) = 46.6; outcome = active
ZRANB3, rucaparib or vehicle Vehicle, cell line OCI-P5x (serous), technical replicate 1: viability, normalised (%) = 78.1; outcome = active
ZRANB3, rucaparib or vehicle Vehicle, cell line OCI-P5x (serous), technical replicate 2: viability, normalised (%) = 80.5; outcome = inactive
ZRANB3, rucaparib or vehicle Vehicle, cell line OCI-P5x (serous), technical replicate 3: viability, normalised (%) = 106; outcome = inactive

3 entries already listed, arranged by “viability, normalised (%)”, descending:
MARVELD3, rucaparib or vehicle Rucaparib, cell line OCI-P5x (serous), technical replicate 1: viability, normalised (%) = 101; outcome = inactive
MARVELD3, rucaparib or vehicle Rucaparib, cell line OCI-C5x (clear cell), technical replicate 3: viability, normalised (%) = 57.8; outcome = active
MARVELD3, rucaparib or vehicle Rucaparib, cell line OCI-C5x (clear cell), technical replicate 2: viability, normalised (%) = 55.1; outcome = active

The results go on:
TPD52, rucaparib or vehicle Rucaparib, cell line OCI-C5x (clear cell), technical replicate 1: viability, normalised (%) = 62.8; outcome = active
TPD52, rucaparib or vehicle Rucaparib, cell line OCI-C5x (clear cell), technical replicate 2: viability, normalised (%) = 48.9; outcome = active
TPD52, rucaparib or vehicle Rucaparib, cell line OCI-C5x (clear cell), technical replicate 3: viability, normalised (%) = 45; outcome = active
TPD52, rucaparib or vehicle Rucaparib, cell line OCI-P5x (serous), technical replicate 1: viability, normalised (%) = 62; outcome = active
TPD52, rucaparib or vehicle Rucaparib, cell line OCI-P5x (serous), technical replicate 2: viability, normalised (%) = 63.8; outcome = active
TPD52, rucaparib or vehicle Rucaparib, cell line OCI-P5x (serous), technical replicate 3: viability, normalised (%) = 51.1; outcome = active
TPD52, rucaparib or vehicle Vehicle, cell line OCI-C5x (clear cell), technical replicate 1: viability, normalised (%) = 57.5; outcome = active
TPD52, rucaparib or vehicle Vehicle, cell line OCI-C5x (clear cell), technical replicate 2: viability, normalised (%) = 32.5; outcome = active
TPD52, rucaparib or vehicle Vehicle, cell line OCI-C5x (clear cell), technical replicate 3: viability, normalised (%) = 41.1; outcome = active
TPD52, rucaparib or vehicle Vehicle, cell line OCI-P5x (serous), technical replicate 1: viability, normalised (%) = 58.2; outcome = active
TPD52, rucaparib or vehicle Vehicle, cell line OCI-P5x (serous), technical replicate 2: viability, normalised (%) = 63.6; outcome = active
TPD52, rucaparib or vehicle Vehicle, cell line OCI-P5x (serous), technical replicate 3: viability, normalised (%) = 66.2; outcome = active
